Laboratory results reported in patent US6197536A (priority 1995, dated 2001).

Assay: general procedure: Fmoc solid-phase peptide synthesis in flow; NovaSyn KR 125 (Kieselguhr-polyamide with modified Rink amide linker, 0.1 mmol/g); PyBOP/HOBt/DIEA; DIPC/HOBt for L-(+)-lactic acid; symmetrical anhydride/DMAP for
Settings: whole synthesis

| Substance | isolated yield | final purity (method not given) (HPLC) | difficulty met |
| --- | --- | --- | --- |
| PEPTIDE1{[ac].D.E.[Asp(EDANS)].E.E.[Abu].[Lac].S.[Lys(DABCYL)].[am]}$$$$V2.0 | 45% | >98% |  |
| Ac-Asp-Glu-Met-Glu-Glu-Thr-.psi.-[CCOO]1-Ala-Ser-His-Leu-Pro-Tyr-Lys(N. sup.ε -Ac)-NH2 | yield 24% |  | Esterification of Thr to lactic acid required three repetitions to obtain a 70% yield, which was also accompanied by 3% racemization of the Thr residue. |

Some peptides are written in HELM: one residue between dots, names in brackets for other building blocks, links after the first $.
